Results published in PMC7282668.
No constants are given. Whether binding was seen depends on the method and setting. In cells and extracts the contact can be indirect. Where a sequence is shown, tags or fusion partners need not be part of it.

How the values were obtained:
Test in all cases: split reporter; BiFC with split YFP fusions in N. benthamiana leaf epidermis after Agrobacterium infiltration; confocal microscopy
Details in all cases: remark: other sources report otherwise
[1] = target: T1, CLF, BiFC split YFP fusion (Arabidopsis thaliana), P93831
T1 chain: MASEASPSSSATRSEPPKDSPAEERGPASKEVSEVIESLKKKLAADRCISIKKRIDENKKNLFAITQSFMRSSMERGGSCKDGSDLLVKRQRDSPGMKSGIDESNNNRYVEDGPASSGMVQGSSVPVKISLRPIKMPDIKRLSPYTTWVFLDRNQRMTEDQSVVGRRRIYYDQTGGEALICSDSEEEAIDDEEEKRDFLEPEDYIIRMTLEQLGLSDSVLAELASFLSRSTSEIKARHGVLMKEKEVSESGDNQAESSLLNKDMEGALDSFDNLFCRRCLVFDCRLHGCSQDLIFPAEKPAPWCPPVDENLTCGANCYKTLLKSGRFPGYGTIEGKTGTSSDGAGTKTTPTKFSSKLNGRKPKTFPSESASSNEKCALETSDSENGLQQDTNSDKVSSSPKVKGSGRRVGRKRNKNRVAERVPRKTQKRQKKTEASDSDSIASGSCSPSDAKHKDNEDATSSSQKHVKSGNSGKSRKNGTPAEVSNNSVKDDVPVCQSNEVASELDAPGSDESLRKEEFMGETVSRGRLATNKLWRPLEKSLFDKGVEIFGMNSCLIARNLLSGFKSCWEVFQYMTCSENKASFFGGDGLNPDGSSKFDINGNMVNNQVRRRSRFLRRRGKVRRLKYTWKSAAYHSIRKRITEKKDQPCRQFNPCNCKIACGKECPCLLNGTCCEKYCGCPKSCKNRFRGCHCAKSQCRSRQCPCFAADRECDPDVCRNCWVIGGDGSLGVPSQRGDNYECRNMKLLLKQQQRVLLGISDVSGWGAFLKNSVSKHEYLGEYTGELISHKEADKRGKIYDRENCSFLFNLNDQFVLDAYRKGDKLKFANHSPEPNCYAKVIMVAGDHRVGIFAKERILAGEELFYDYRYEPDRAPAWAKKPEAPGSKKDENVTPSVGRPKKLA

[2] = target: T2, FIE, BiFC split YFP fusion (Arabidopsis thaliana), Q9LT47
T2 chain: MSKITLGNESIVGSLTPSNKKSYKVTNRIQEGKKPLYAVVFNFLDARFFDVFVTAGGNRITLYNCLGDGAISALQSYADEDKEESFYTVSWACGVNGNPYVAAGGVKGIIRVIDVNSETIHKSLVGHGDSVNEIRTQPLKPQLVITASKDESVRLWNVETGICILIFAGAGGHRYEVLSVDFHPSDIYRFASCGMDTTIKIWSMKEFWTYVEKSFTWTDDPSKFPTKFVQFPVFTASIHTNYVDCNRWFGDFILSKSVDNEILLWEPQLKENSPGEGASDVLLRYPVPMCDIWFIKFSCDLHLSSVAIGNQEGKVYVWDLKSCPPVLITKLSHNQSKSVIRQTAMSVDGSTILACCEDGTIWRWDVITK

[3] = target: T3, EMF2, BiFC split YFP fusion (Arabidopsis thaliana), Q8L6Y4
T3 chain: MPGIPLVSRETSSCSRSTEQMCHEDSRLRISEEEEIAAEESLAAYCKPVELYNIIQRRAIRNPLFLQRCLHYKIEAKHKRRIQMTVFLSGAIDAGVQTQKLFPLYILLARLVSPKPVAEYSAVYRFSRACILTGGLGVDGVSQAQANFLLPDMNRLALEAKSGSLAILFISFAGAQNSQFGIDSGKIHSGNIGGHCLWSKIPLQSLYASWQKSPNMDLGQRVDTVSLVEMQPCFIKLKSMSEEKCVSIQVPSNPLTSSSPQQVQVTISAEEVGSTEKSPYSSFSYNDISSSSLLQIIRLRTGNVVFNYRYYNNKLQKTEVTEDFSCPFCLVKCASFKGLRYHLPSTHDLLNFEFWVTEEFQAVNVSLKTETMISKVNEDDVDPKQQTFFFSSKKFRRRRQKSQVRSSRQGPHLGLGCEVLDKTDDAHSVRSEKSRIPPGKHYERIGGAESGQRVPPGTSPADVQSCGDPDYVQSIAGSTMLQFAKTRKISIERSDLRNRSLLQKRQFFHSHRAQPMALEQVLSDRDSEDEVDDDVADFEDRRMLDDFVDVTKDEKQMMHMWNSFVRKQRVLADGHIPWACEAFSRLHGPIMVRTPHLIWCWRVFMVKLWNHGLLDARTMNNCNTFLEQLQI

[4] = target: T4, SWN, BiFC split YFP fusion (Arabidopsis thaliana), Q9ZSM8
T4 chain: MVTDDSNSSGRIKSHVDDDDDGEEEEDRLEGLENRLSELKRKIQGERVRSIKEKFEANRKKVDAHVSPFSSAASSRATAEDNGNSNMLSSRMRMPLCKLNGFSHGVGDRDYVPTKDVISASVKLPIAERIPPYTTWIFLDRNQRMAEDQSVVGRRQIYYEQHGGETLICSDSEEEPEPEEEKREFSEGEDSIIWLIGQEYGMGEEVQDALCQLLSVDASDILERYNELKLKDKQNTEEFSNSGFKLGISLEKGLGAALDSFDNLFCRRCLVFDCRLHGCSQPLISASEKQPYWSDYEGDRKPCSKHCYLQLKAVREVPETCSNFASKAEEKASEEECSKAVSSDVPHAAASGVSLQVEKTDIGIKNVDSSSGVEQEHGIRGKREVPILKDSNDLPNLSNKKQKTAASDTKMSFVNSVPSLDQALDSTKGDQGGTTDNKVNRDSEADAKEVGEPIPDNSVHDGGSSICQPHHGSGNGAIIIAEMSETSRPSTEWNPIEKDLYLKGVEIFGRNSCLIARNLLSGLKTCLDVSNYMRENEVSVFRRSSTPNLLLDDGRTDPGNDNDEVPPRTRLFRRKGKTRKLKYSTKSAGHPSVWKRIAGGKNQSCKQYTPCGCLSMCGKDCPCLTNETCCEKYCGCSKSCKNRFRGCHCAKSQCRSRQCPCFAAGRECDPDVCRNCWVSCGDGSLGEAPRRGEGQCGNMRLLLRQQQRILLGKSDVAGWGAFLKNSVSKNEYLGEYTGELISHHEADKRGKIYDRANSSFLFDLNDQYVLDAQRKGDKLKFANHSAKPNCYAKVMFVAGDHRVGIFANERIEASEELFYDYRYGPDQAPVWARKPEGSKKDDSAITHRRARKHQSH

Measured: binding

B1: ALP1-nYFP (35S::ALP1-nYFP), BiFC fusion, Q94K49 1-396 (protein)
chain: MAPVKQKKKNKKKPLDKAKKLAKNKEKKRVNAVPLDPEAIDCDWWDTFWLRNSSPSVPSDEDYAFKHFFRASKTTFSYICSLVREDLISRPPSGLINIEGRLLSVEKQVAIALRRLASGDSQVSVGAAFGVGQSTVSQVTWRFIEALEERAKHHLRWPDSDRIEEIKSKFEEMYGLPNCCGAIDTTHIIMTLPAVQASDDWCDQEKNYSMFLQGVFDHEMRFLNMVTGWPGGMTVSKLLKFSGFFKLCENAQILDGNPKTLSQGAQIREYVVGGISYPLLPWLITPHDSDHPSDSMVAFNERHEKVRSVAATAFQQLKGSWRILSKVMWRPDRRKLPSIILVCCLLHNIIIDCGDYLQEDVPLSGHHDSGYADRYCKQTEPLGSELRGCLTEHLLR
no binding: all assays above
